Data as given in the supplement of paper PMC8551327.
“And” between values parts separate entries of the source, which are not always exact repeats. Identical values can stand only once. Counter-ions that a name gives are not always drawn. The list shows a part of the results. No stated cut-off is given here; in the data, active = 1.25 or more and inactive = the rest. Most values come without repeats; read them as rough.

These compounds were tested on Kcc2-LUC knock-in mouse primary cortical neurons (Kcc2 promoter reporter) (assay: Kcc2 promoter-driven luciferase activity relative to vehicle control (fold of vehicle (ratio)); higher = stronger Kcc2 promoter activation (Kcc2 expression enhancer)). Conditions: 100 nM; 48 h.

Row | Compound | Kcc2 promoter-driven luciferase activity
1 | CN(C)CCCN1c2ccc3ccccc3c2Sc2cccc(Cl)c21 | inactive: 1.07
2 | CN1C(Cl)=NS(=O)(=O)c2ccccc21 [4H-1,2,4-Benzothiadiazine, 3-chloro-4-methyl-, 1,1-dioxide] | inactive: 1.17
3 | CC(=O)N[C@@H](CCC(=O)C=[N+]=[N-])C(=O)O [Duazomycin] | inactive: 0.54
4 | CCOC(=O)c1cc2c(OC)cc(OC)cc2oc1=O [ethyl 5,7-dimethoxy-2-oxochromene-3-carboxylate] | inactive: 0.85
5 | COc1ccccc1Cc1nc(-c2ccccc2)nn(C2OC(COC(C)=O)C(OC(C)=O)C(OC(C)=O)C2OC(C)=O)c1=S (centres undefined) | inactive: 0.83
6 | CC[C@H](CO)Nc1nc(NCc2ccccc2)c2ncn(C(C)C)c2n1 [Seliciclib] | inactive: 0.821
7 | COC(=O)[C@@H]1[C@H](O)[C@H](C)[C@H](O)[C@H](C)/C=C\C=C(/C)C(=O)Nc2c(C)c(OC(C)=O)c3c(c2O)C(=O)C(C)=C2OCOC(=C23)/C(C)=C/[C@@](C)(O)[C@H](O)[C@@H](C)[C@H]1OC(C)=O [Streptovaricin B] | inactive: 0.58 and inactive: 0.91
8 | O=C1Nc2ccc(Br)cc2/C1=C\C(=O)c1ccccc1 [(3E)-5-Bromo-3-phenacylidene-1H-indol-2-one] | inactive: 1.06
9 | Cc1cc(NC(=O)NC(=O)c2ccccc2NC(=O)CN)ccc1Oc1ncc(Br)cn1 [Glycylaminophenylbenzoylurea (HCl salt)] | active: 1.26
